Our source for the binding values is patent US20230416352A1.

Amino acid sequences for entries named in this document (tags omitted). A change or cut given only in a name is not applied to a line headed by its entry.
UniProt P29279: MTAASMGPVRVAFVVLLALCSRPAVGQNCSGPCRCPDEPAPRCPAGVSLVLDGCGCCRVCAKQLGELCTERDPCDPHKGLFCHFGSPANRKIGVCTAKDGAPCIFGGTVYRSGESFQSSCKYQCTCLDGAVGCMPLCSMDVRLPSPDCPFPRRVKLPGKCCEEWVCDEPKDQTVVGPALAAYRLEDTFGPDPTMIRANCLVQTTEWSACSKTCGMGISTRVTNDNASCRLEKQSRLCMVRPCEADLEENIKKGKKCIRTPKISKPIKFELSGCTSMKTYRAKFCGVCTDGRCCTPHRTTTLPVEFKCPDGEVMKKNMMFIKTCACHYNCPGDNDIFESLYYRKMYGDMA

Changes are numbered by the printed parent chain. No constants are given. Whether binding was seen depends on the method and setting. Binding can be weak; no strength is given.

B1: Ch147 (antibody, human IgG1, kappa, V domains shown)
VH: EVQLVESGGGLVQPEGSLKLSCAASGFSFNTYAMNWVRQAPGKGLEWVARIRTKSNNYATYYADSVKDRFTISRDDSESMLYLQMNNLKTEDTAMYYCVETGFAYWDQGTLVTVSA
VL: QIVLTQSPAIMSASPGEKVTITCSASSSVSYMHWFQQKPGTSPKLWIYSTSNLASGVPARFSGSGSGTSYSLTISRMEAEDAATYYCQQRSSYPLTFGAGTKLELKR
B2: Hu147-23wk (antibody, human IgG1, kappa, V domains shown)
VH: B1 VH with E15G, K19R, S28T, E78K, S79N, M80S, N87S, M95V, A116S
VL: EIVLTQSPATLSLSPGERATLSCSASSSVSYMHWFQQKPGQSPKLWIYSTSNLASGVPARFSGSGSGTDYTLTISSLEPEDFAVYYCQQRSSYPLTFGQGTKLEIKR
B3: Hu147-31wk (antibody, human IgG1, kappa, V domains shown)
VH: B1 VH with E15G, K19R, M80S, N87S, M95V, A116S
VL: B2 VL with K44R, W46L, V57I
B4: Hu147-33wk (antibody, human IgG1, kappa, V domains shown)
VH: B1 VH with E15G, K19R, M80S, N87S, M95V, A116S
VL: B2 VL
B5: Hu147-32wk (antibody, human IgG1, kappa, V domains shown)
VH: B1 VH with E15G, K19R, M80S, N87S, M95V, A116S
VL: B2 VL with W46L, V57I
B6: Hu147-22wk (antibody, human IgG1, kappa, V domains shown)
VH: B1 VH with E15G, K19R, S28T, E78K, S79N, M80S, N87S, M95V, A116S
VL: B2 VL with W46L, V57I
B7: Hu147-21wk (antibody, human IgG1, kappa, V domains shown)
VH: B1 VH with E15G, K19R, S28T, E78K, S79N, M80S, N87S, M95V, A116S
VL: B2 VL with K44R, W46L, V57I
B8: Hu147-34wk (antibody, human IgG1, kappa, V domains shown)
VH: B1 VH with E15G, K19R, M80S, N87S, M95V, A116S
VL: DIQMTQSPSSLSASVGDRVTITCSASSSVSYMHWFQQKPGKSPKLLIYSTSNLASGVPSRFSGSGSGTDYTLTISSLQPEDFATYYCQQRSSYPLTFGQGTKLEIKR
B9: Hu164-57wl (antibody, human IgG1, lambda, V domains shown)
VH: EVTLKESGPVLVKPTETLTLTCTVSGFSLSTFGVHWIRQPPGKALEWLAVIWRRGGTDYNAAFMSRLTISKDTSKSQVVLTMTNMDPVDTATYYCARDGGFDYWGQGTTVTVSS
VL: ETVVTQEPSLTVSPGGTVTLTCRSSIGAVTTSNYANWVQQKPGQAFRGLIGGTSNRAPWTPARFSGSLLGGKAALTLSGVQPEDEAEYYCALWYSTHYVFGGGTKLTVLG
B10: Hu164-68wl (antibody, human IgG1, lambda, V domains shown)
VH: B9 VH with A44G, A49G, L80F
VL: ETVVTQEPSFSVSPGGTVTLTCRSSIGAVTTSNYANWVQQTPGQAFRGLIGGTSNRAPGVPDRFSGSILGNKAALTITGAQADDESDYYCALWYSTHYVFGGGTKLTVLG
B11: Hu164-77wl (antibody, human IgG1, lambda, V domains shown)
VH: EVQLQESGPGLVKPSQTLSLTCTVSGFSISTFGVHWIRQHPGKGLEWIGVIWRRGGTDYNAAFMSRVTISKDTSKNQVSLKLSSVTAADTAVYYCARDGGFDYWGQGTTVTVSS
VL: B9 VL
B12: Hu164-87wl (antibody, human IgG1, lambda, V domains shown)
VH: B11 VH with I48L, V67L, L80F
VL: B9 VL
B13: Hu164-69wl (antibody, human IgG1, lambda, V domains shown)
VH: B9 VH with A44G, A49G, L80F
VL: ESVVTQPPSVSGAPGQRVTISCRSSIGAVTTSNYANWVQQLPGTAFKGLIGGTSNRAPGVPDRFSGSKSGTSASLAITGLQAEDEADYYCALWYSTHYVFGGGTKLTVLG
B14: Hu147-11wk (antibody, human IgG1, kappa, V domains shown)
VH: EVQLVESGGGLVQPGGSLRLSCAASGFTFSTYAMNWVRQAPGKGLEWVGRIRTKSNNYATYYADSVKDRFTISRDDSKNSLYLQMNSLKTEDTAVYYCVETGFAYWDQGTLVTVSS
VL: B2 VL with K44R, W46L, V57I
B15: Hu147-13wk (antibody, human IgG1, kappa, V domains shown)
VH: B14 VH
VL: B2 VL
B16: Hu147-12wk (antibody, human IgG1, kappa, V domains shown)
VH: B14 VH
VL: B2 VL with W46L, V57I
B17: Hu147-14wk (antibody, human IgG1, kappa, V domains shown)
VH: B14 VH
VL: B8 VL
B18: Hu95-21wk (antibody, human IgG1, kappa, V domains shown)
VH: EVQLVQSGAEVKKPGASVKVSCKASGFTFTNYDIHWVRQAPGQRLEWIGLVYPYNGGTAYNQKFKDRATLTFDTSASTAYMELSSLRSEDTAVYYCARWGLIPGTTSYFDVWGQGTTVTVSS
VL: EIVLTQSPATLSLSPGERATLSCRASSSVSYIHWYQQKPGQAPRPWIYATSNLASGIPARFSGSGSGTDYTLTISRLEPEDFAVYYCQQWNSNPWTFGGGTKVEIKR
B19: Hu95-41wk (antibody, human IgG1, kappa, V domains shown)
VH: B18 VH with R38K, R67K
VL: B18 VL
B20: Hu95-51yk (antibody, human IgG1, kappa, V domains shown)
VH: B18 VH with K23R, D33A, R38K, I48M, N55T, R67K, A68V, L101M, T106N
VL: B18 VL
B21: Hu95-31wk (antibody, human IgG1, kappa, V domains shown)
VH: B18 VH with R38K, I48M, R67K, A68V
VL: B18 VL
B22: Hu95-42wk (antibody, human IgG1, kappa, V domains shown)
VH: B18 VH with R38K, R67K
VL: B18 VL with A42S, I57V, D69S

In the test the target is human CTGF (antigen of the Biacore assays) (human) (UniProt P29279). In words: SPR (Biacore). Background: SPR reads the build-up and loss of mass on a sensor chip optically.
As to B1, the binding result is given as “binds”.

B2: the binding entry was “binds”.

On to B3, for which the binding result is on record as “binds”.

Take B4: the binding entry was “binds”.

As for B5, the binding entry was “binds”.

As to B6, the binding result is on record as “binds”.

B7: the binding entry is “binds”.

For B8, the binding result was “binds”.

As for B9, the binding entry is on record as “binds”.

B10: the binding entry is on record as “binds”.

As for B11, the binding result is given as “binds”.

Take B12: the binding entry was “binds”.

As for B13, the binding entry is “binds”.

As for B14, the binding entry is given as “binds”.

With B15, the binding entry is reported as “binds”.

As to B16, the binding entry is on record as “binds”.

As for B17, the binding result is “binds”.

On to B18, for which the binding result was “binds”.

Consider B19, for which the binding result is reported as “binds”.

Turning to B20, the binding result is “binds”.

For B21, the binding result is listed as “binds”.

With B22, the binding entry was “binds”.
